# Results of single-concentration screens

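Growth of Mycobacterium tuberculosis over 4 days (cholesterol / DPPC medium with tyloxapol); the read-out is not stated. Tested at 500 µM. The record gives no direction; compounds that gave an IC50 in retests scored well above the rest, so higher reads as more growth inhibition. Size under these conditions: about 18,000 compounds, about 900 of them at 50% or above in at least one test.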

The filed quantity is “Percent Effect” (%).
The controls that fix the scale are not given in the record; negative values are as filed.
Compounds were drawn at random from those tested, without regard to their results.

Compound,percent effect
CC(SCc1cccc(S(=O)(=O)N(C)C)c1)C(N)=O (stereo unspecified),10.27%
CNS(=O)(=O)CCNC(=O)[C@@]12CNC[C@@H]1CN(C)C2,-5.047%
Nc1cncc(CO)n1,4.304%
CNC(C)(C)CNC(=O)Nc1ccccn1,0.4553%
COCC1(N(C)CCC(=O)Nc2cccnc2)CC1,0.4862%
CCCOC(=O)c1csc(NC(C)=O)n1,47.45%
C=C(Br)CN(C)C(C)c1cccc(S(N)(=O)=O)c1 (stereo unspecified),30.36%
c1ccc(C[C@H]2COCCN2)cc1,0.7291%
O=C1CCc2cc(C(=O)N3CCCC3)ccc2N1,-13.61%
CN(Cc1ccccc1)C(=O)C1CCNCC1,12.37%
CC(C)(C)c1n[nH]cc1CNCCCNS(C)(=O)=O,20.98%
CCNc1nnc(SCc2ncccc2C)s1,74.09%
CCCNC(=O)CNC(=O)c1ccc(O)nc1,10.59%
CS(=O)(=O)Cc1ccccc1Br,-14.58%
CCCNc1nnc(SC2CCOC2)s1 (stereo unspecified),94.06%
O=C1CN(CCC(=O)Nc2cc(Cl)ccc2Cl)CCN1,-22.83%
Cc1cc(C(=O)N2C[C@@H](CO)[C@H](N(C)C)C2)on1,10.25%
CC(C)CCNC(=O)c1ccccc1S(C)(=O)=O,-8.749%
NCc1cn2cc(Cl)ccc2n1,-3.086%
Cc1cc(C)n(C2CNC2)n1,-5.576%
NC1CCN(Cc2cc(O)c3cc(F)ccc3n2)C1 (stereo unspecified),-14.14%
COc1ccc2oc(C(=O)NC(C)C(N)=O)c(C)c2c1 (stereo unspecified),0.5201%
CN1CCN(C(=O)C2CC23CCNCC3)CC1 (stereo unspecified),-8.943%
CCNC(=O)c1ccc(CN)cc1,0.8182%
O=C1NC[C@@H]2CNCC[C@H]12,-1.278%
COc1cccc(CNCC2CCOC2)c1 (stereo unspecified),-4.13%
Cc1ccc2oc(C(=O)NC(CO)CO)cc2c1,-12.47%
Cc1csc2nc(CSCC(=O)NC3CC3)cc(=O)n12,-30.45%
CC(C)CCNC(=O)Nc1ccc(S(C)(=O)=O)cc1,73.24%
CCS(=O)(=O)CCC(=O)Nc1cccc(F)c1,-0.118%
COC(=O)CNc1cc(F)ccc1-n1cccn1,5.877%
O=C(Cn1cc(Cl)cn1)N1CCC2(CCCNC2)C1 (stereo unspecified),5.992%
CC1CCCCN(CCC(=O)N2CCN(C)CC2)C1 (stereo unspecified),5.423%
Nc1nc2c(s1)COCC2,-9.315%
CC1CCCN(CCCNC(=O)c2ccncc2)C1 (stereo unspecified),2.532%
COc1cc(CCC(=O)Nc2nc[nH]n2)on1,2.76%
CSCCC(O)C(=O)NCCCn1ccnn1 (stereo unspecified),6.193%
CN(CCOc1ccc(Cl)cc1)S(C)(=O)=O,66.95%
CN(C)CCCOc1cccc(CN2CC(O)C2)c1,12.18%
Cc1cncc(CCN)n1,1.028%
OC1CCN(Cc2ccccc2)C2(CC2)C1 (stereo unspecified),-6.315%
CN(C)S(=O)(=O)Nc1cccc(C2SCCS2)c1,18.47%
CC(=O)Nc1ccc(C(=O)CSc2nnc[nH]2)cc1,35.88%
CCN(Cc1cccc(F)c1)C1CCS(=O)(=O)C1 (stereo unspecified),37.95%
CCC=C(C)C(=O)Nc1ccn(CCS(C)(=O)=O)n1,-18.08%
CN1CCN(C)C2(CCN(C(=O)C(C)(C)O)CC2)C1,4.411%
OCCN(CCO)Cc1cc(F)cc(Br)c1,22.99%
CS(=O)(=O)N1CCN(Cc2cccc(Br)c2)CC1,-2.877%
CNC1CCc2nnc(C)n2CC1 (stereo unspecified),-10.58%
Cn1nccc1CCNc1ccc(F)cn1,-0.4552%
Cn1nccc1CCC(=O)N1CCCCC1CN (stereo unspecified),-1.764%
COc1cccc(CN(C)C(=O)c2occc2C)n1,54.79%
CCC1CCCCN1C(=O)CSc1nnnn1C1CC1 (stereo unspecified),15.29%
CCCN1CCN(C(=O)COc2ccccc2)CC1,57.63%
CC(CCN)CCO (stereo unspecified),-8.286%
COC(=O)N1CC(NC(=O)c2cc(C(C)=O)c[nH]2)C1,72.84%
O=C(CNC(CO)C1CC1)Nc1ccccc1 (stereo unspecified),-10.29%
O=C1NCCCNC1c1ccccc1 (stereo unspecified),4.542%
CN(Cc1ccccc1)C(=O)CN,11.05%
CN(C)c1cc(CO)ccn1,-1.343%
Nc1ncccc1CN1CCc2ccccc2CC1,1.701%
CC(C)CC(=O)Nc1cc(C(C)C)n[nH]1,-14.29%
CS(=O)(=O)CC(=O)NCCc1nc2ccccc2o1,1.727%
CSc1nnc(N2CCOCC2)n1Cc1ccccc1,10.32%
CCCC(=O)N1CCC2(CC1)NCCc1[nH]cnc12,-11.74%
CCC(CO)NC(=O)c1ccc(Cl)c(OC)c1 (stereo unspecified),-8.667%
Cc1nccn1CCN(C)Cc1cc2n(n1)CCNC2,-5.654%
c1ccc(OCCCNCc2ccco2)nc1,20.11%
Cc1cccc(OCC(=O)NCCn2cncn2)c1C,-2.004%
CN(CC(=O)Nc1ccsc1)C1CCS(=O)(=O)C1 (stereo unspecified),7.219%
CCN(CC)CCOC1CCNC1 (stereo unspecified),-16.05%
CN(C)c1cc([C@H]2C[C@@H](O)C2)nc(N)n1,-15.47%
CC(C)N(Cc1ccc(CO)o1)CC1CCC(=O)N1 (stereo unspecified),-1.236%
COc1cc(C(=O)N[C@@H]2CC[C@@H](N)C2)ccc1F,9.229%
C[S+]([O-])c1nncn1CCCOc1ccc(C#N)cc1 (stereo unspecified),31.5%
O=C(NCc1nnc2n1CCC2)c1ccccc1,-14.05%
C[C@@H]1CN(C(=O)NC(C)(C)C)C[C@]1(C)O,-1.764%
COCCc1nncn1C1CCNCC1,-2.949%
CS(=O)(=O)NCCC1=CCCCC1,-3.856%
CCNC(=O)c1cc(C#N)cn1C,-0.5858%
Cc1noc(NC(=O)c2ccc(C(F)(F)F)nc2C)n1,100.7%
Cc1nc(-c2ccccn2)[nH]c(=O)c1CC(N)=O,-0.8287%

The last 4 entries again:

Result for CS(=O)(=O)NCCC1=CCCCC1 was -3.856%.
Result for CCNC(=O)c1cc(C#N)cn1C was -0.5858%.
Result for Cc1noc(NC(=O)c2ccc(C(F)(F)F)nc2C)n1 was 100.7%.
Result for Cc1nc(-c2ccccn2)[nH]c(=O)c1CC(N)=O was -0.8287%.

From ChEMBL document CHEMBL3988442, “University of Dundee, Small-Polar-MMV Screening Library” (2021).